From PubChem BioAssay AID1347075 (National Center for Advancing Translational Sciences (NCATS), 2019)
Among all 400,000 compounds or so, about 5,500 (1.4%) were called active. Inconclusive results, whose numbers are uncertain, are shown with a selection of clear calls. Calls follow the shape of the dose curve; as a rule, active = well fitted cell-killing curve with a large enough effect; inconclusive = small, poorly fitted or top-dose-only effect, or effect the other way; inactive = flat fitted curve, though single readings scatter. A potency beside an inconclusive call is a rough fit, not a confirmed value.
% is scaled to controls: 0 for no effect and ±100 for the full control effect; potency is read from the fitted curve at half-maximal effect.

Assay: qHTS assay for MDR1-selective chemotherapeutics: Primary screen using the parental adenocarcinoma cell KB-3-1; also: nearly all actives have a fitted effect of over 60% in size
Details: KB-3-1 viability, CellTiter-Glo ATP luminescence, 72 h; activity change, negative = cytotoxic: at 46.1 µM (top of the series)
Summary of the method: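 Viability of parental KB-3-1 cells, measured by CellTiter-Glo luminescence, followed a 72 h incubation at 37 °C with pinned compounds in phenol-red-free DMEM containing 10% FBS.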
In the case of `Cc1ccnc(SCCn2c(N3CCC(C)CC3)nc3c2c(=O)[nH]c(=O)n3C)n1`, the Potency is reported as inconclusive: 32.6 µM [rising, single point]. With `Cc1cc[n+](CCC2CCCCC2)cc1` the Potency was active: 20.6 µM. For `CS(=O)(=O)N(CC(=O)N1CCN(Cc2ccc3c(c2)OCO3)CC1)Cc1ccc(Cl)cc1`, the Potency was inconclusive: 29.1 µM [cytotoxic, single point]. In the case of `COC(=O)C[C@H]1C[C@H]2c3cc(NS(=O)(=O)c4cccc(OC)c4)ccc3O[C@H]2[C@@H](CO)O1`, the “activity change, negative = cytotoxic” value is reported as inactive: 0%. With `CCC(CC)C(=O)N1c2ccc(F)cc2CCC1C` (stereo unspecified) the “activity change, negative = cytotoxic” value was inactive: 4.04%. For `COc1ccc(/C=C/C(=O)c2cc(F)ccc2OC(=O)c2ccccc2OC)cc1OC`, the Potency was active: 5.17 µM. In the case of `COc1ccc(N2CC(NC(=O)c3cc4ccccc4o3)CC2=O)cc1OC` (stereo unspecified), the “activity change, negative = cytotoxic” value is reported as inactive: 13.9%. With `COc1ccc(S(=O)(=O)Cc2ccc(C(=O)N3CCN(c4cccc(C)c4)C(C)C3)o2)cc1` (stereo unspecified) the Potency was active: 3.26 µM. With `COc1cccc(C(=O)Nc2cccc(-c3ccc(N4CCOCC4)nn3)c2)c1OC` the Potency was inconclusive: 23.1 µM [cytotoxic, single point]. For `COC(=O)c1cc(C(=O)c2ccc(Cl)cc2)n2c(=O)/c(=C\N(C)C)sc12`, the Potency was active: 8.2 µM. For `COc1ccc(NC(=O)C2Cc3c(-c4cccc(C(C)=O)c4)ccnc3O2)cc1` (stereo unspecified), the Potency was active: 4.11 µM. For `Cc1cc(C(=O)NC2CCCc3c2cnn3-c2cccc(C)c2C)c(C)o1` (stereo unspecified), the Potency was inconclusive: 25.9 µM [cytotoxic, single point]. In the case of `Cc1ccc(C)c(NC(=S)N/N=C2\CCc3ccccc32)c1`, the Potency is reported as inconclusive: 29.1 µM [cytotoxic, single point]. In the case of `Fc1cccc(CNc2ncnc3cc(Cl)ccc23)c1F`, the Potency is reported as inconclusive: 25.9 µM [cytotoxic, single point]. With `C=CC[C@H](CC(=O)NCCO)C(=O)N[C@H](COC(=O)[C@H](CC=C)CC(=O)OC(C)(C)C)Cc1c[nH]c2ccccc12` the “activity change, negative = cytotoxic” value was inactive: 0%. In the case of `CC(=O)c1ccc(N2CCN(S(=O)(=O)c3ccc4c(c3)CC(C)N4C(C)=O)CC2)cc1` (stereo unspecified), the Potency is reported as inconclusive: 7.31 µM [cytotoxic, partial curve]. With `Fc1c(F)c(F)c(N/N=C/c2c[nH]c3ccccc23)c(F)c1F` the Potency was inconclusive: 20.6 µM [cytotoxic, single point]. In the case of `CCCCn1c(=O)n(Cc2cccc(F)c2)c(=O)c2c1ncn2Cc1ccco1`, the “activity change, negative = cytotoxic” value is reported as inactive: 8.11%. In the case of `COc1ccccc1NS(=O)(=O)c1cc(N/C(=N/S(=O)(=O)c2ccccc2)c2ccc(F)cc2)ccc1Cl`, the activity change, negative = cytotoxic is reported as inconclusive: -43.2% [cytotoxic]. In the case of `Cc1cccc(NCC(=O)N/N=C\c2c[nH]c3ccccc23)c1`, the Potency is reported as inconclusive: 23.1 µM [cytotoxic, partial curve, poor fit]. With `Cc1cc(OCc2cc(C(=O)N3CCN(CC4CC4)CC3)no2)cc(C)c1Cl` the Potency was inconclusive: 14.6 µM [cytotoxic, partial curve, poor fit]. With `O=C/C(=C\Nc1ccccn1)c1nc2cc(Cl)ccc2o1` the “activity change, negative = cytotoxic” value was inactive: -1.74%. With `COc1ccc(NC(=O)c2nc[nH]c2C(=O)N[C@@H](C)c2ccccc2)cc1` the Potency was inconclusive: 0.58 µM [rising, full curve]. For `CCN(CC(=O)Nc1sc2c(c1C#N)CCC(C)C2)Cc1nc2ccccc2c(=O)[nH]1` (stereo unspecified), the “activity change, negative = cytotoxic” value was inactive: 1.7%. For `COC(=O)c1ccccc1NC(=O)C1CCCO1` (stereo unspecified), the “activity change, negative = cytotoxic” value was inactive: 17.6%. In the case of `O=C(c1sc2ccccc2c1Cl)N(Cc1ccccc1Cl)C1CCS(=O)(=O)C1` (stereo unspecified), the Potency is reported as inconclusive: 16.4 µM [cytotoxic, single point]. With `Oc1ccc(Br)cc1/C=N/NC(=S)NCCc1ccccc1` the Potency was inconclusive: 29.1 µM [cytotoxic, single point]. With `COc1ccc(NS(=O)(=O)c2cc(OC)ccc2NC(=O)c2cc(C)oc2C)cc1` the Potency was inconclusive: 2.59 µM [cytotoxic, partial curve, poor fit]. In the case of `CCOc1cc(/C=C/C(=O)c2ccc(C)cc2)ccc1OCC(=O)N(C)C`, the Potency is reported as inconclusive: 18.4 µM [cytotoxic, single point]. In the case of `N#CCCN(C(=S)NC(=O)C1CCCCC1)c1ccccc1F`, the Potency is reported as inconclusive: 29.1 µM [rising, single point]. In the case of `O[C@@H]1CN(CC2CCCCC2)[C@@H](c2ccc(Cl)cc2)C[C@H]1n1cc(-c2ccc(F)cc2)nn1`, the “activity change, negative = cytotoxic” value is reported as inactive: -29%. With `CCN(CC)C(=O)c1sc2c(c1C)c(=O)n(Cc1ccccc1)c(=O)n2Cc1ccc(Cl)cc1` the Potency was inconclusive: 23.1 µM [cytotoxic, partial curve, poor fit]. For `Nc1c(-c2ccc(F)cc2)nc2ncccn12`, the “activity change, negative = cytotoxic” value was inactive: -4.31%. In the case of `CCC(C)c1ccccc1NC(=O)COC(=O)c1ccc(N2CCCC2)c([N+](=O)[O-])c1` (stereo unspecified), the Potency is reported as active: 0.0023 µM. For `O=C1N[C@@H](Cc2ccccc2)COC(=O)[C@@H](Cc2ccc(F)cc2)CC/C=C/C[C@@H]1CC(=O)N(CCO)Cc1ccccc1`, the Potency was inconclusive: 29.1 µM [cytotoxic, single point]. For `CCCc1nc2oc3c(NCCCN(C)C)ncnc3c2c2c1CCCC2`, the “activity change, negative = cytotoxic” value was inactive: 0%. For `Cc1cn([C@H]2C[C@H](O)[C@@H](CNCc3cnc(N4CCOCC4)nc3)O2)c(=O)[nH]c1=O`, the activity change, negative = cytotoxic was inconclusive: 50.5%. In the case of `O=C(Nc1ccccc1)N(Cc1cccs1)C1CCCC1`, the “activity change, negative = cytotoxic” value is reported as inactive: 0%. In the case of `Cc1cccc(N=C2C(=O)Nc3c(Cl)cccc32)c1`, the “activity change, negative = cytotoxic” value is reported as inactive: -3.2%. With `COC(=O)c1ccc2c(=O)n(-c3ccccc3F)c(=S)[nH]c2c1` the Potency was inconclusive: 29.1 µM [cytotoxic, single point]. In the case of `Cc1cccc(OCc2occc2C(=O)Nc2cccc(-n3cnnn3)c2)c1`, the “activity change, negative = cytotoxic” value is reported as inactive: 5.4%. In the case of `CCOC(=O)COc1ccc(S(=O)(=O)Nc2ccc(C)cc2)cc1`, the Potency is reported as inconclusive: 29.1 µM [cytotoxic, single point]. For `Cc1cc(C)cc(NC(=O)C(=O)NCc2ccccn2)c1`, the Potency was inconclusive: 29.1 µM [rising, single point]. In the case of `Cc1ccc(NC(=S)N(C)N)cc1Cl`, the “activity change, negative = cytotoxic” value is reported as inactive: -0.865%. With `CCN(C(=O)CCn1cnc2onc(-c3ccc(F)cc3)c2c1=O)c1ccc(OC)cc1` the Potency was inconclusive: 29.1 µM [cytotoxic, single point]. For `Cn1nccc1C(=O)Nc1ccc2c(c1)OCO2`, the “activity change, negative = cytotoxic” value was inactive: 2.12%.
